Reference: patent US20190086411A1 (ROCHE SEQUENCING SOLUTIONS, published 2019)
These are yes or no findings as the source states them, for the method shown. Some binding calls cover weakened binding; strength is not graded here.

Biological target: Streptavidin labelled with Cy5 (UniProt P22629)
Assay: double substitution/deletion peptide microarray, Cy5-streptavidin

Binder | binding
WTHPQFEQK | binds
ADYLAEYHGG | binds
YERPGWKLGT | binds
NSFDDWLAKGG | binds

Biological target: Streptavidin labelled with Cy5 (UniProt P22629)
Assay: extension peptide microarray (160,000 peptides, five replicates), Cy5-streptavidin

Binder | binding
WTHPQFE | binds
DYLAEYHGG | binds
YERPGWKLS | binds
NSFDEWLQK | binds
